In PubChem BioAssay AID1347076 (National Center for Advancing Translational Sciences (NCATS), 2019):
Among all 400,000 compounds or so, about 13,000 (3.2%) were called active. This list was built around the results that the source calls inconclusive (neither active nor inactive); the mix of calls is not that of the screen. The call rests on the fitted dose curve; in most records, active means well fitted cell-killing curve with a large enough effect; inconclusive means small, poorly fitted or top-dose-only effect, or effect the other way; inactive means flat fitted curve, though single readings scatter. Potencies of inconclusive entries are doubtful fits and often do not repeat.

Assay: qHTS assay for MDR1-selective chemotherapeutics: Primary screen using the drug-selected MDR subline cells KB-V1; further: nearly all actives have a fitted effect of over 60% in size
Details: KB-V1 MDR cells viability, CellTiter-Glo, 72 h; activity change, negative = cytotoxicity: at 46.1 µM (top of the series)
Procedure, shortened: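 KB-V1 MDR subline cells in DMEM (phenol-red free, 10% FBS) exposed to compounds in qHTS concentration series for 72 h at 37 degrees C. Viability read by CellTiter-Glo luminescence; concentration-effect curves fitted after normalization and correction.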
On the % scale 0 is the no-effect control and ±100 the full control effect; potency means the concentration at half of the fitted maximal effect.

Row | Compound | Potency | activity change, negative = cytotoxicity
1 | O=C(c1ccc(N2CCN(C(=O)c3ccccc3Br)CC2)cc1)c1cccc(F)c1 | active: 5.8 µM | –
2 | Cn1c(=O)n(Cc2ccc(Br)cc2)c2ccccc21 | inconclusive: 16.4 µM [cytotoxic, single point] | –
3 | O=C(NC(=S)NCc1ccccc1)C1CC1 | – | inactive: 7.53%
4 | Cc1ccc(CN2CCCn3nc(C(=O)NCCN(C)C)cc3C2=O)cc1 | inconclusive: 29.1 µM [rising, single point] | –
5 | O=C(C1CCCN(S(=O)(=O)c2cccc3nsnc23)C1)N1CCN(c2ccccn2)CC1 (stereo not given) | inconclusive: 20.6 µM [cytotoxic, single point] | –
6 | O=C(Nn1c(-c2ccc(Br)cc2)nc2ccccc2c1=O)c1ccc([N+](=O)[O-])cc1 | inconclusive: 20.6 µM [cytotoxic, single point] | –
7 | CN(C)S(=O)(=O)c1ccc(C(=O)Nc2nnc(SCC(=O)N3CCOCC3)s2)cc1 | – | inactive: -14.9%
8 | CC(C)c1ccc(NC(=O)COC(=O)c2cc(=O)[nH]c3ccccc23)cc1 | inconclusive: 29.1 µM [rising, single point] | –
9 | N=c1n(Cc2ccc(Cl)cc2)c2ccccc2n1CC(O)COc1ccccc1 (stereo not given) | – | inconclusive: -51.8%
10 | Cc1cc(NC(=O)c2cccc(S(=O)(=O)N3c4ccccc4CC3C)c2)no1 (stereo not given) | – | inactive: -4.84%
11 | O=C(Nc1ccc(/C=C/c2nc3ccccc3o2)cc1)c1ccc(F)cc1 | – | inactive: 22.1%
12 | O=C(c1ccc2c(c1)OCO2)C1CCCN(Cc2cccc(C(F)(F)F)c2)C1 (stereo not given) | – | inactive: -21.9%
13 | COc1cccc(OCc2nc3ccccc3n2CCOc2ccccc2)c1 | inconclusive: 29.1 µM [cytotoxic, single point] | –
14 | Cc1cc(C)n2nc(SCCOc3ccccc3F)nc2n1 | inconclusive: 20.6 µM [cytotoxic, single point] | –
15 | CCn1c(C(=O)NCCCN2CCc3ccccc3C2)cc2sccc21 | active: 9.2 µM | –
16 | N#Cc1nc(/C=C/c2ccccc2)oc1NCCCN1CCOCC1 | inconclusive: 11.6 µM [cytotoxic, partial curve, poor fit] | –
17 | Cc1nc(C(C)N(C)Cc2nc(-c3ccc4c(c3)OCO4)no2)c(C)s1 (stereo not given) | – | inactive: -1.48%
18 | O=C(Nc1cccc(-c2csc(Nc3ccc(Cl)cc3)n2)c1)c1ccccc1 | – | inactive: -25%
19 | CCOc1cc(C2NC(=S)NC(C)=C2C(=O)Nc2ccccc2)ccc1O (stereo not given) | inconclusive: 29.1 µM [rising, single point] | –
20 | COc1ccc(NC(=O)Cc2coc3cc(C)cc(C)c23)c(OC)c1 | – | inactive: -1.83%
21 | CCOC(=O)C1CCCN(S(=O)(=O)c2ccc(NC(C)=O)cc2)C1 (stereo not given) | – | inactive: 4.07%
22 | Cc1ccc(-c2cc(C(=O)N3CCN(c4ccc(F)cc4)CC3)c3ccccc3n2)o1 | inconclusive: 32.6 µM [cytotoxic, single point] | –
23 | O=C(NC1CCCCC1)N1CCN(c2nc(-c3ccccc3)cs2)CC1 | active: 11.6 µM | –
24 | CC1(C)CC(=O)C=C(NCc2ccc(Cl)c(Cl)c2)C1 | inconclusive: 16.4 µM [cytotoxic, single point] | –

Row | Compound | Potency | activity change, negative = cytotoxicity
25 | Cc1c(C(=O)OCC(=O)N2CCCC(C)C2)oc2ccccc12 (stereo not given) | inconclusive: 18.4 µM [cytotoxic, partial curve, poor fit] | –
26 | COc1ccc(/C=N/NC(N)=S)cc1OC(=O)c1cccc2ccccc12 | inconclusive: 20.6 µM [cytotoxic, single point] | –
27 | CCOC(=O)c1ccc2nc(CCC(=O)N[C@H](C(=O)OC)C(C)C)c(=O)n(CC)c2c1 | inconclusive: 0.0082 µM [rising, full curve, poor fit] | –
28 | CCCCCCCN(CCCCCCC)c1ccc(/C=C/c2ccnc3ccccc23)cc1 | inconclusive: 25.9 µM [rising, single point] | –
29 | O=C(C1CC(=O)N(C2CCCC2)C1)N1CCN(c2ccccc2)CC1 (stereo not given) | inconclusive: 29.1 µM [cytotoxic, single point] | –
30 | Cc1ccc(OCC(=O)N/N=C/c2ccc([N+](=O)[O-])o2)cc1 | inconclusive: 23.1 µM [cytotoxic, single point] | –
31 | O=C(CCC(=O)N1CCN(c2ccc(F)cc2)CC1)N1CCN(c2ccc(F)cc2)CC1 | inconclusive: 3.26 µM [cytotoxic, full curve] | –
32 | COc1ccc2cc(S(=O)(=O)N3CCCCCC3)ccc2c1 | inconclusive: 14.6 µM [cytotoxic, single point] | –
33 | Cn1nc(-c2ccc(OCC(=O)Nc3ccccc3)cc2)c2ccccc2c1=O | inconclusive: 25.1 µM [cytotoxic, single point] | –
34 | CCOC(=O)c1ccc2c(c1)N(Cc1cccc([N+](=O)[O-])c1)C(=O)c1ccccc1S2 | inconclusive: 7.31 µM [cytotoxic, partial curve] | –
35 | O=C(NNC1=C(C(=O)C(F)(F)F)CCC1)c1cccc(Cl)c1 | inconclusive: 18.4 µM [cytotoxic, single point] | –
36 | O=C(CN1CCCc2ccccc21)N/N=C/c1c(O)ccc2ccccc12 | inconclusive: 29.1 µM [cytotoxic, single point] | –
37 | CCOc1ccccc1NC(=O)c1cccc(NC(=O)C2CCCC2)c1 | inconclusive: 4.61 µM [cytotoxic, full curve] | –
38 | CCC(=O)NC(Cc1ccccc1)c1ccc2c(c1)OCCCO2 (stereo not given) | active: 13 µM | –
39 | CCOC(=O)c1c(NC(=O)CSc2nc3ccccc3o2)sc(C(C)=O)c1C | – | inactive: -17.3%
40 | COc1cccc2c(=O)cc(C)n(CC(=O)Nc3ccccc3C)c12 | inconclusive: 7.31 µM [cytotoxic, partial curve] | –
41 | COc1ccc(/C=C2\C(=O)OCc3cc(OC)c(OC)cc32)cc1OC | inconclusive: 16.4 µM [cytotoxic, partial curve] | –
42 | CCCCNc1nc(Oc2ccc(=O)n(-c3ccccc3)n2)nc(N(C)C)n1 | – | inactive: 3.1%
43 | Cc1cccc(N(CC(=O)Nc2ccc(F)cc2)S(C)(=O)=O)c1 | active: 16.4 µM | –
44 | O=C(COC(=O)c1ccc(NS(=O)(=O)c2cccs2)cc1)NCc1ccco1 | inconclusive: 25.9 µM [cytotoxic, single point] | –
45 | CCCCCCCN1CCC(=O)N(CCO)CC1 | inconclusive: 16.4 µM [rising, partial curve, poor fit] | –
46 | CCN(CC)C(=O)COc1ccc2oc(C)c(C(=O)OC(C)C)c2c1 | inconclusive: 18.4 µM [cytotoxic, partial curve] | –
47 | Cc1[nH]nc2c1C(c1cc(Br)cs1)C(C#N)=C(N)O2 (stereo not given) | active: 16.4 µM | –
48 | Cc1nnc(-c2ccco2)c2cn(-c3cccc(Br)c3)nc12 | inconclusive: 6.51 µM [cytotoxic, partial curve] | –

One compound at a time (already shown).
CCCCCCCN(CCCCCCC)c1ccc(/C=C/c2ccnc3ccccc23)cc1 as listed: Potency: inconclusive: 25.9 µM [rising, single point]
CCCCNc1nc(Oc2ccc(=O)n(-c3ccccc3)n2)nc(N(C)C)n1 as listed: activity change, negative = cytotoxicity: inactive: 3.1%

Continued:

Row | Compound | Potency | activity change, negative = cytotoxicity
49 | CN(CC(=O)Nc1ccc(Cl)c(C(F)(F)F)c1)C(=O)CCN1C(=O)C2CC=CCC2C1=O (stereo not given) | inconclusive: 10.3 µM [cytotoxic, partial curve] | –
50 | N#Cc1ccc(CN2CCN(CC(=O)NCCc3ccc(Cl)cc3Cl)CC2)cc1 | active: 18.4 µM | –
51 | CC1(C)C(O)=C(c2nc3ccccc3[nH]2)C(=N)N1c1ccccc1 | inconclusive: 18.4 µM [cytotoxic, single point] | –
52 | COc1ccc(NC(=O)CSc2ccccc2)cc1S(=O)(=O)N1CCCCC1 | inconclusive: 9.2 µM [cytotoxic, partial curve] | –
53 | N#Cc1ccccc1NC(=O)c1cc(=O)c2ccccc2o1 | inconclusive: 29.1 µM [cytotoxic, single point] | –
54 | O=C(CCCN1C(=O)NC2(CCCC2)C1=O)NCc1ccccc1 | – | inactive: -16.5%
55 | CCOC(=O)/C(=C\c1ccccc1)C(=O)CCN1CCOCC1 | inconclusive: 23.1 µM [cytotoxic, single point] | –
56 | O=C(N/N=C/c1cn(-c2ccccc2)nc1-c1ccc(F)cc1)c1ccc2c(c1)OCO2 | inconclusive: 16.4 µM [cytotoxic, single point] | –
57 | O=C(Nc1nnc(-c2ccco2)o1)c1ccc(Br)s1 | inconclusive: 29.1 µM [cytotoxic, single point] | –
58 | O=C(Nc1cc(Cl)cc(Cl)c1)c1cccc(OC(F)F)c1 | active: 16.4 µM | –
59 | Cc1nnc(N2CCN(c3ccccc3F)CC2)c2c1nnn2Cc1ccc(F)cc1 | inconclusive: 2.31 µM [cytotoxic, partial curve, poor fit] | –
60 | O=C1NC[C@@H](Cc2ccc(O)cc2)N(CCc2cc(C(F)(F)F)cc(C(F)(F)F)c2)C1=O | – | inactive: -8.09%
61 | COc1ccc(CC(=O)NCc2ccc(-n3cccc3)cc2)cc1OC | active: 8.2 µM | –
62 | COc1ccc(N2CCN(CCCNC(=O)c3cnn(-c4ccc(F)cc4)c3-n3cccc3)CC2)cc1 | inconclusive: 0.651 µM [cytotoxic, full curve, poor fit] | –
63 | O=C(Nc1ccc(Br)cn1)C1CCCN1S(=O)(=O)c1ccccc1 (stereo not given) | – | inactive: 0%
64 | Cc1ccccc1NC(=O)CCN1CCN(C/C=C/c2ccccc2)CC1 | inconclusive: 16.4 µM [cytotoxic, partial curve, poor fit] | –
65 | COCCNC(=O)c1c(NC(=O)Cc2coc3cc(C)ccc23)sc2c1CCCC2 | – | inactive: 6.48%
66 | O=C(COC(=O)/C=C/c1ccco1)Nc1ncc(Cl)cc1Cl | inconclusive: 23.1 µM [rising, partial curve, poor fit] | –
67 | Nc1nc(SCc2ccc([N+](=O)[O-])cc2)c2ncn(C3OC(CO)C(O)C3O)c2n1 (stereo not given) | inconclusive: 20.6 µM [cytotoxic, single point] | –
68 | CCC(C)NC(=O)Cn1c(=O)n(-c2ccc(C)cc2)c(=O)c2ccccc21 (stereo not given) | – | inactive: 8.77%
69 | O=C(C[C@H]1C=C[C@H](NC(=O)Nc2ccccc2F)[C@@H](CO)O1)NCc1ccc(-c2ccccc2)cc1 | – | inactive: -3%
70 | CC(=O)NCc1ccc(-c2csc(NC(=O)CCc3nc4ccccc4c(=O)[nH]3)n2)s1 | inconclusive: 20.6 µM [rising, single point] | –

Rewritten with tabs: entries from further up
Row	Compound	Potency	activity change, negative = cytotoxicity
61	COc1ccc(CC(=O)NCc2ccc(-n3cccc3)cc2)cc1OC	active: 8.2 µM	–
62	COc1ccc(N2CCN(CCCNC(=O)c3cnn(-c4ccc(F)cc4)c3-n3cccc3)CC2)cc1	inconclusive: 0.651 µM [cytotoxic, full curve, poor fit]	–
